Laboratory results from PMC3820264.

Molecular target: G2320R mutant form of thyroglobulin with three C-terminal Myc tags
Experiment: affinity purification with mass spectrometry; Myc-tagged Tg^rdw precipitated with anti-Myc agarose (ProFound c-Myc Tag IP/Co-IP Kit) from lysates of rib chondrocytes of 5-day-old Col2-Tg^rdw mice; cells treated with 25 mM NEM before lysis in 25 mM Tris-HCl pH 7.4, 150 mM NaCl, 1 mM EDTA, 1% Triton X-100, 5% glycerol, 0.5 mM PMSF; co-precipitating proteins identified by LC-MS/MS

binding: binds
B1: PDIA6 (protein, UniProt Q922R8 20-440)
chain: LYSSSDDVIELTPSNFNREVIQSDGLWLVEFYAPWCGHCQRLTPEWKKAATALKDVVKVGAVNADKHQSLGGQYGVQGFPTIKIFGANKNKPEDYQGGRTGEAIVDAALSALRQLVKDRLGGRSGGYSSGKQGRGDSSSKKDVVELTDDTFDKNVLDSEDVWMVEFYAPWCGHCKNLEPEWAAAATEVKEQTKGKVKLAAVDATVNQVLASRYGIKGFPTIKIFQKGESPVDYDGGRTRSDIVSRALDLFSDNAPPPELLEIINEDIAKKTCEEHQLCVVAVLPHILDTGAAGRNSYLEVLLKLADKYKKKMWGWLWTEAGAQYELENALGIGGFGYPAMAAINARKMKFALLKGSFSEQGINEFLRELSFGRGSTAPVGGGSFPTITPREPWDGKDGELPVEDDIDLSDVELDDLEKDEL

Results are given in words; binding and its absence hold for the method and conditions named. Binding seen in cells or lysates may run through a third protein. A yes stands for co-enrichment or nearness to the bait. Other partners may have been found.
